For some of these results: For expression read-outs the peptide stands for its source gene, whose mRNA was measured; the gene is not named for every peptide.

The test system of data set [1] is source genes of the peptides (mRNA). In words: Expression profiling of genes encoding the peptides (RNAseq of tumor and normal tissue RNA). Also noted: species or system human. Particulars: for Gene Expression in tumor samples: very highly over-expressed (+++): tumor entities in which the source gene of the peptide is very highly over-expressed compared to a panel of normal tissues (RNAseq).

Data set [2] deals with tumor tissue samples and normal tissue samples (HLA-B*07 positive). The data set can be described thus: Identification and quantitation of tumor associated peptides presented on the cell surface (HLA immunoprecipitation, label-free LC-MS). More on the design: species or system human. Conditions: for Peptide Presentation on cancer entities: Table 8b, cancer entities on which the peptide was found presented (abbreviations in table head); for presentation on various cancer entities: HLA ligands of primary tumor tissue samples, LC-MS.

[3] abbreviates: tumor entities in which the source gene of the peptide is highly over-expressed compared to a panel of normal tissues (RNAseq).
[4] abbreviates: tumor entities in which the source gene of the peptide is over-expressed compared to a panel of normal tissues (RNAseq).
The mark [5] stands for this setting: tumor types in which the peptide's source gene is highly over-expressed compared to a panel of normal tissues, RNAseq.

Take “62: peptide found in F5 (gene looked up) (KPQSTISGL; listed as Homo sapiens) [compound 62]”: in data set [1] (setting [3]), the “Gene Expression in tumor samples: Highly over-expressed (++)” value is reported as “HCC”. For the same substance, the “Gene Expression in tumor samples: over-expressed (+)” value (from here on “Gene Expression … over-expressed (+)”) in data set [1] (setting [4]) was “CCC”.

Take “186: peptide found in GRP (gene looked up) (VPLPAGGGTVLT; listed as Homo sapiens) [compound 186]”: in data set [1] (setting [3]), the “Gene Expression in tumor samples: Highly over-expressed (++)” value is listed as “SCLC”.

On to “198: peptide found in SIGLEC15 (gene looked up) (LPSPAHAFRAL; listed as Homo sapiens) [compound 198]”, for which the “Gene Expression in tumor samples: Highly over-expressed (++)” value in data set [1] (setting [3]) is listed as “UBC”. Also, the “Gene Expression … over-expressed (+)” value in data set [1] (setting [4]) is “HCC, MEL, NHL, OC, PACA, UEC”.

With “213: peptide found in SIGLEC8 (gene looked up) (RPYQDAPVA; listed as Homo sapiens) [compound 213]”, the “Gene Expression in tumor samples: Highly over-expressed (++)” value in data set [1] (setting [3]) is recorded as “GBM”. Besides, the “Gene Expression … over-expressed (+)” value in data set [1] (setting [4]) is recorded as “NHL, RCC”.

For the substance “248: peptide found in EGFR (gene looked up) (KPYDGIPAS; listed as Homo sapiens) [compound 248]”, the “Gene Expression in tumor samples: Highly over-expressed (++)” value in data set [1] (setting [3]) was “GBM”.

As to “265: peptide found in LOXL3 (gene looked up) (FPRKPYEGRV; listed as Homo sapiens) [compound 265]”, in data set [1] (setting [3]), the “Gene Expression in tumor samples: Highly over-expressed (++)” value was “MEL”.

On to “277: peptide found in HCAR1 (gene looked up) (MPPLLIVAF; listed as Homo sapiens) [compound 277]”, for which, in data set [1] (setting [3]), the “Gene Expression in tumor samples: Highly over-expressed (++)” value was “BRCA”. Also, the “Gene Expression … over-expressed (+)” value in data set [1] (setting [4]) is given as “UBC”.

In the case of “360: peptide found in CD70 (gene looked up) (SPASRSISLL; listed as Homo sapiens) [compound 360]”, the “Gene Expression in tumor samples: Highly over-expressed (++)” value in data set [1] (setting [3]) was “CLL, NHL”. Moreover, the “Gene Expression … over-expressed (+)” value in data set [1] (setting [4]) is listed as “AML, GC, HNSCC, OC, OSCAR”. Besides, the “Gene Expression in tumor samples: very highly over-expressed (+++)” value in data set [1] is “RCC”.

As to “369: peptide found in CD70 (gene looked up) (RPYGCVLRAA; listed as Homo sapiens) [compound 369]”, in data set [1] (setting [3]), the “Gene Expression in tumor samples: Highly over-expressed (++)” value is recorded as “CLL, NHL”. For the same substance, the “Gene Expression … over-expressed (+)” value in data set [1] (setting [4]) is “AML, CCC, GBC, GC, HNSCC, OC, OSCAR”. Further, the “Gene Expression in tumor samples: very highly over-expressed (+++)” value in data set [1] was “RCC”.

“381: peptide found in TGFBR1 (gene looked up) (APRPRLLLL; listed as Homo sapiens) [compound 381]”: the “Gene Expression … over-expressed (+)” value in data set [1] (setting [4]) is given as “CCC, GBC, MEL”.

Take “452: peptide found in ENPP3 (gene looked up) (QPVKKNTL; listed as Homo sapiens) [compound 452]”: the “Gene Expression in tumor samples: Highly over-expressed (++)” value in data set [1] (setting [5]) is “RCC”. The “Gene Expression … over-expressed (+)” value in data set [1] (tumor types in which the peptide's source gene is over-expressed compared to a panel of normal tissues, RNAseq) is “HCC, UEC”.

Regarding “458: peptide found in ENPP3 (gene looked up) (VPIPTHYFVVL; listed as Homo sapiens) [compound 458]”, in data set [1] (setting [5]), the “Gene Expression in tumor samples: Highly over-expressed (++)” value was “RCC”.

On to “467 (VPRNQDWLGVSRQL; listed as Homo sapiens) [compound 467]”, for which the “Peptide Presentation on cancer entities” value in data set [2] was “MEL”.

For “468 (LPSLHVLVL; listed as Homo sapiens) [compound 468]”, the “Peptide Presentation on cancer entities” value in data set [2] is recorded as “MEL”.

For “469 (LPLDTRTSI; listed as Homo sapiens) [compound 469]”, the “Peptide Presentation on cancer entities” value in data set [2] is “CLL”.

Turning to “471 (LPLLAGTLLL; listed as Homo sapiens) [compound 471]”, the “Peptide Presentation on cancer entities” value in data set [2] is reported as “NSCLCadeno”.

On to “472 (LPMPAITWY; listed as Homo sapiens) [compound 472]”, for which the “Peptide Presentation on cancer entities” value in data set [2] is recorded as “MEL”.

As to “473 (LPGEREAAL; listed as Homo sapiens) [compound 473]”, the “Peptide Presentation on cancer entities” value in data set [2] is “MEL”.

Turning to “474 (VPKADLLTL; listed as Homo sapiens) [compound 474]”, the “Peptide Presentation on cancer entities” value in data set [2] is “MEL”.

Take “475 (IPLEIQKL; listed as Homo sapiens) [compound 475]”: the “Peptide Presentation on cancer entities” value in data set [2] was “MEL”.

For the substance “476 (EPNPVEEIF; listed as Homo sapiens) [compound 476]”, in data set [2], the “Peptide Presentation on cancer entities” value is recorded as “NSCLCsquam”.

Turning to “477 (NPVPVITWYKDNRL; listed as Homo sapiens) [compound 477]”, the “Peptide Presentation on cancer entities” value in data set [2] was “MEL”.

For the substance “479 (APHAGGALL; listed as Homo sapiens) [compound 479]”, in data set [2], the “Peptide Presentation on cancer entities” value is on record as “NSCLCsquam”.

As for “480 (VPAAPTKAL; listed as Homo sapiens) [compound 480]”, the “Peptide Presentation on cancer entities” value in data set [2] is given as “CLL”.

Take “482 (QPSLKKIIL; listed as Homo sapiens) [compound 482]”: in data set [2], the “Peptide Presentation on cancer entities” value was “PACA”.

As to “484 (LPASAEPKGTM; listed as Homo sapiens) [compound 484]”, in data set [2], the “Peptide Presentation on cancer entities” value is given as “HNSCC”.

As to “485 (LPLKTKVFA; listed as Homo sapiens) [compound 485]”, the “Peptide Presentation on cancer entities” value in data set [2] was “NSCLCsquam”.

For “486 (TPTRPLPSA; listed as Homo sapiens) [compound 486]”, in data set [2], the “Peptide Presentation on cancer entities” value was “NSCLCadeno”.

As to “487 (IPWFIKTAF; listed as Homo sapiens) [compound 487]”, the “Peptide Presentation on cancer entities” value in data set [2] was “MEL”.

On to “489 (WPNHIMLVL; listed as Homo sapiens) [compound 489]”, for which the “Peptide Presentation on cancer entities” value in data set [2] is given as “MEL”.

For “491 (MPEADLKRIF; listed as Homo sapiens) [compound 491]”, the “Peptide Presentation on cancer entities” value in data set [2] is “MEL”.

Take “492 (IPFSVDEI; listed as Homo sapiens) [compound 492]”: in data set [2], the “Peptide Presentation on cancer entities” value is reported as “NSCLCother, UEC”.

For “493 (LPLQQYKLV; listed as Homo sapiens) [compound 493]”, in data set [2], the “Peptide Presentation on cancer entities” value is listed as “HCC”.

Take “494 (LPLRAVNLNL; listed as Homo sapiens) [compound 494]”: the “Peptide Presentation on cancer entities” value in data set [2] is recorded as “SCLC”.

Regarding “495 (SPSYTQASL; listed as Homo sapiens) [compound 495]”, the “Peptide Presentation on cancer entities” value in data set [2] was “BRCA”.

Take “496 (MPAVSGPGPLF; listed as Homo sapiens) [compound 496]”: the “Peptide Presentation on cancer entities” value in data set [2] is listed as “NSCLCadeno”.

Consider “498 (RPQPQPRPAL; listed as Homo sapiens) [compound 498]”, for which the “Peptide Presentation on cancer entities” value in data set [2] is given as “HNSCC, OSCAR”.

On to “499 (QPVLPSPAC; listed as Homo sapiens) [compound 499]”, for which, in data set [2], the “Peptide Presentation on cancer entities” value is “MEL”.

For “SEQ ID No. 22 (LPQLKPAL; listed as Homo sapiens)”, the “presentation on various cancer entities” value in data set [2] is “head and neck squamous cell carcinoma and esophageal cancer”.

In the case of “SEQ ID No. 34: peptide found in PGR (gene looked up) (APMAPGRSP; listed as Homo sapiens)”, in data set [2], the “presentation on various cancer entities” value is “breast cancer and uterine and endometrial cancer”.
